# Experimental data: patent publication US8394952B2 (Vertex Pharmaceuticals Incorporated, priority 2006, dated 2013)
# The chains behind the UniProt entries cited, without tags or fusion partners. Residues count along the entry.
# UniProt P53350, 20-338: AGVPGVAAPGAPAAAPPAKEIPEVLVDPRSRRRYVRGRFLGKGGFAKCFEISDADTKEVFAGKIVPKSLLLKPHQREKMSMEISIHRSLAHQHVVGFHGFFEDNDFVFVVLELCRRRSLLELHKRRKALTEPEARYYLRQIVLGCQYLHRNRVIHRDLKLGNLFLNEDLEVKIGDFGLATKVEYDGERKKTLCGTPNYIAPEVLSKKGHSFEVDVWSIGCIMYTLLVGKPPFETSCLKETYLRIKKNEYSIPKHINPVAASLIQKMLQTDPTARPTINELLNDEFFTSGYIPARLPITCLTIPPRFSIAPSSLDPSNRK
# Some entries share one result that the patent states for a list of compounds. Some ranges recur; such a range may be that of the whole group of compounds.
# Molecular target: Plk1 (Homo sapiens, UniProt P53350)
# Experiment: Plk1 inhibition assay (radioactive-phosphate incorporation)
# Settings: read-out: Ki (Ki(app)), Plk1, group 'Ki between 100 nM and 4 μM' (mixed units kept in the value)
row,Structure (SMILES),Ki
1,"CNC(=O)c1ccc(Nc2ncc3c(n2)N(C2CCCC2)CC(C)(C)C(=O)N3)c(OC)c1 [Compound I-29, 4-(9-cyclopentyl-6,7,8,9-tetrahydro-7,7-dimethyl-6-oxo-5H-pyrimido[4,5-b][1,4]diazepin-2-ylamino)-3-methoxy-N-methylbenzamide]",0.1 to 4 µM
2,"CCN1C(=O)CCN(C2CCCC2)c2nc(Nc3ccc(C(=O)NC)cc3OC)ncc21 [Compound I-41, 4-(9-cyclopentyl-5-ethyl-6,7,8,9-tetrahydro-6-oxo-5H-pyrimido[4,5-b][1,4]diazepin-2-ylamino)-3-methoxy-N-methylbenzamide]",0.1 to 4 µM
3,"CN1C(=O)C(C)(C)CN(C2CCCC2)c2nc(NCc3ccccc3)ncc21 [Compound I-54, 2-(benzylamino)-9-cyclopentyl-8,9-dihydro-5,7,7-trimethyl-5H-pyrimido[4,5-b][1,4]diazepin-6(7H)-one]",0.1 to 4 µM
4,"CN1C(=O)C(C)(C)CN(C2CCCC2)c2nc(NCCc3ccccc3)ncc21 [Compound I-55, 9-cyclopentyl-8,9-dihydro-5,7,7-trimethyl-2-(phenethylamino)-5H-pyrimido[4,5-b][1,4]diazepin-6(7H)-one]",0.1 to 4 µM
5,"CN1C(=O)C(C)(C)CN(C2CCCC2)c2nc(N[C@@H]3CCc4ccccc43)ncc21 [Compound I-57, 2-((R)-2,3-dihydro-1H-inden-1-ylamino)-9-cyclopentyl-8,9-dihydro-5,7,7-trimethyl-5H-pyrimido[4,5-b][1,4]diazepin-6(7H)-one]",0.1 to 4 µM
6,"CNC(=O)c1ccc(Nc2ncc3c(n2)N(C2CCCC2)[C@H](C)CC(=O)N3C)c(OC)c1 [Compound I-61, 4-((R)-9-cyclopentyl-6,7,8,9-tetrahydro-5,8-dimethyl-6-oxo-5H-pyrimido[4,5-b][1,4]diazepin-2-ylamino)-3-methoxy-N-methylbenzamide]",0.1 to 4 µM
7,"CN1C(=O)C(C)(C)CN(C2CCCC2)c2nc(Nc3ccc(=O)[nH]c3)ncc21 [Compound I-82, 2-(1,6-dihydro-6-oxopyridin-3-ylamino)-9-cyclopentyl-8,9-dihydro-5,7,7-trimethyl-5H-pyrimido[4,5-b][1,4]diazepin-6(7H)-one]",0.1 to 4 µM
8,"Cc1cc(=O)[nH]cc1Nc1ncc2c(n1)N(C1CCCC1)CC(C)(C)C(=O)N2C [Compound I-83, 2-(1,6-dihydro-4-methyl-6-oxopyridin-3-ylamino)-9-cyclopentyl-8,9-dihydro-5,7,7-trimethyl-5H-pyrimido[4,5-b][1,4]diazepin-6(7H)-one]",0.1 to 4 µM
9,"COc1cc(Nc2ncc3c(n2)N(C2CCCC2)CC(C)(C)C(=O)N3C)cc([N+](=O)[O-])c1 [Compound I-84, 2-(3-methoxy-5-nitrophenylamino)-9-cyclopentyl-8,9-dihydro-5,7,7-trimethyl-5H-pyrimido[4,5-b][1,4]diazepin-6(7H)-one]",0.1 to 4 µM
10,"CC(=O)N(C)c1ccc(Nc2ncc3c(n2)N(C2CCCC2)CC(C)(C)C(=O)N3C)cc1 [Compound I-88, N-(4-(9-cyclopentyl-6,7,8,9-tetrahydro-5,7,7-trimethyl-6-oxo-5H-pyrimido[4,5-b][1,4]diazepin-2-ylamino)phenyl)-N-methylacetamide]",0.1 to 4 µM
11,"CNC(=O)c1ccc(Sc2ncc3c(n2)N(C2CCCC2)CC(C)(C)C(=O)N3C)cc1 [Compound I-100, 4-(9-cyclopentyl-6,7,8,9-tetrahydro-5,7,7-trimethyl-6-oxo-5H-pyrimido[4,5-b][1,4]diazepin-2-ylthio)-N-methylbenzamide]",0.1 to 4 µM
12,"CN1CCN(C(=O)c2cccc(Nc3ncc4c(n3)N(C3CCCC3)CC(C)(C)C(=O)N4C)c2)CC1 [Compound I-106, 9-cyclopentyl-5,7,7-trimethyl-2-[3-(4-methylpiperazine-1-carbonyl)-phenylamino]-5,7,8,9-tetrahydropyrimido[4,5-b][1,4]diazepin-6-one]",0.1 to 4 µM
13,"CN1C(=O)C(C)(C)CN(C2CCCC2)c2nc(Nc3cccc4[nH]cnc34)ncc21 [Compound I-115, 2-(1H-benzo[d]imidazol-4-ylamino)-9-cyclopentyl-8,9-dihydro-5,7,7-trimethyl-5H-pyrimido[4,5-b][1,4]diazepin-6(7H)-one]",0.1 to 4 µM
14,"CNC(=O)c1ccc(Nc2ncc3c(n2)N(C2CCCC2)CC(C)(C)C(=O)N3C)c(OCCN2CCCC2)c1 [Compound I-121, 3-(2-(pyrrolidin-1-yl)ethoxy)-4-(9-cyclopentyl-6,7,8,9-tetrahydro-5,7,7-trimethyl-6-oxo-5H-pyrimido[4,5-b][1,4]diazepin-2-ylamino)-N-methylbenzamide]",0.1 to 4 µM
15,"CN1C(=O)C(C)(C)CN(C2CCCC2)c2nc(-n3nc(N)c4ccccc43)ncc21 [Compound I-127, 2-(3-amino-1H-indazol-1-ylamino)-9-cyclopentyl-8,9-dihydro-5,7,7-trimethyl-5H-pyrimido[4,5-b][1,4]diazepin-6(7H)-one]",0.1 to 4 µM
16,"CN1C(=O)C(C)(C)CN(C2CCCC2)c2nc(Nc3cccc([N+](=O)[O-])c3)ncc21 [Compound I-128, 2-(3-nitrophenylamino)-9-cyclopentyl-8,9-dihydro-5,7,7-trimethyl-5H-pyrimido[4,5-b][1,4]diazepin-6(7H)-one]",0.1 to 4 µM
17,"CNC(=O)c1cc(Nc2ncc3c(n2)N(C2CCCC2)CC(C)(C)C(=O)N3C)cc(C(F)(F)F)c1 [Compound I-140, 3-(9-Cyclopentyl-6,7,8,9-tetrahydro-5,7,7-trimethyl-6-oxo-5H-pyrimido[4,5-b][1,4]diazepin-2-ylamino)-5-(trifluoromethyl)-N-methylbenzamide]",0.1 to 4 µM
18,"CC(=O)N(C)c1cccc(Nc2ncc3c(n2)N(C2CCCC2)CC(C)(C)C(=O)N3C)c1 [Compound I-146, N-(3-(9-Cyclopentyl-6,7,8,9-tetrahydro-5,7,7-trimethyl-6-oxo-5H-pyrimido[4,5-b][1,4]diazepin-2-ylamino)phenyl)-N-methylacetamide]",0.1 to 4 µM
19,"CN(C)C(=O)c1cccc(Nc2ncc3c(n2)N(C2CCCC2)CC(C)(C)C(=O)N3C)c1 [Compound I-148, 3-(9-Cyclopentyl-6,7,8,9-tetrahydro-5,7,7-trimethyl-6-oxo-5H-pyrimido[4,5-b][1,4]diazepin-2-ylamino)-N,N-dimethylbenzamide]",0.1 to 4 µM
20,"COc1ccccc1Nc1ncc2c(n1)N(C)CCC(=O)N2C [Compound I-189, 2-(2-methoxyphenylamino)-5,9-dimethyl-8,9-dihydro-5H-pyrimido[4,5-b][1,4]diazepin-6(7H)-one]",0.1 to 4 µM
